Experimental data published in publication PMC12669767.
Positions count from the first letter of the chain named. No constants are given. Whether binding was seen depends on the method and setting. Binding seen in cells or lysates may run through a third protein. These calls come from enrichment with a bait or labelling near it, and not all partners need be listed. For some of these results: Tags and fused reporters may be left off the sequences shown. Values belong to the binder of their own block, whether it stands above or below them.

What was measured:
Assay in all cases: affinity purification with mass spectrometry; label-free interactome: ALFA-TXNIP or its PPxY mutants precipitated from transfected HEK293T lysate on ALFA Selector ST magnetic beads, 3 h at 4 °C; 30 mM Tris pH 7.5, 150 mM NaCl, 0.5% octyl-glucopyranoside; abundances normalised to empty beads; n = 3
[1] = molecular target: T1, ALFA-tagged TXNIP (thioredoxin interacting protein), expressed in HEK293T (human), Q9H3M7; settings: remark: other sources report otherwise
T1 chain: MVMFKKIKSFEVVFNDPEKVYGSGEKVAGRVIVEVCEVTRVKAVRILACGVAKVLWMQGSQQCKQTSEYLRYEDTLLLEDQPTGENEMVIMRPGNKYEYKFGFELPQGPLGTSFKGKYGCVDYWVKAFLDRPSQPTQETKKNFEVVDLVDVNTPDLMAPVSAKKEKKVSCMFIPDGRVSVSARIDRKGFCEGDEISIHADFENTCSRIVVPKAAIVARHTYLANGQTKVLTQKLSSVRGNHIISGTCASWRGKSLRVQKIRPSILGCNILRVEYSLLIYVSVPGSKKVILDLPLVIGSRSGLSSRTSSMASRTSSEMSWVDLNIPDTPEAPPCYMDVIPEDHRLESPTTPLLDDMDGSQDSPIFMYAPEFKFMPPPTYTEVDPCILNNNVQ

[2] = molecular target: T2, ALFA-TXNIP^PPCY331AACA (first PPxY motif mutated) (human) (UniProt Q9H3M7)
T2 sequence: T1 chain with P331A, P332A, Y334A

[3] = molecular target: T3, ALFA-TXNIP^(PPCY331AACA, PPTY375AATA) (both PPxY motifs mutated) (human) (UniProt Q9H3M7)
T3 sequence: T1 chain with P331A, P332A, Y334A, P375A, P376A, Y378A

binding [1]: binds
B1: TXN (Thioredoxin), endogenous in HEK293T, P10599 1-105 (protein)
chain: MVKQIESKTAFQEALDAAGDKLVVVDFSATWCGPCKMIKPFFHSLSEKYSNVIFLEVDVDDCQDVASECEVKCMPTFQFFKKGQKVGEFSGANKEKLEATINELV

binding [2]: binds
binding [3]: binds
B2: TXN (Thioredoxin), endogenous in HEK293T (protein, UniProt P10599 1-105)
chain: B1 chain

binding [1]: binds
B3: NEDD4L, endogenous in HEK293T, Q96PU5 1-975 (enzyme)
chain: MATGLGEPVYGLSEDEGESRILRVKVVSGIDLAKKDIFGASDPYVKLSLYVADENRELALVQTKTIKKTLNPKWNEEFYFRVNPSNHRLLFEVFDENRLTRDDFLGQVDVPLSHLPTEDPTMERPYTFKDFLLRPRSHKSRVKGFLRLKMAYMPKNGGQDEENSDQRDDMEHGWEVVDSNDSASQHQEELPPPPLPPGWEEKVDNLGRTYYVNHNNRTTQWHRPSLMDVSSESDNNIRQINQEAAHRRFRSRRHISEDLEPEPSEGGDVPEPWETISEEVNIAGDSLGLALPPPPASPGSRTSPQELSEELSRRLQITPDSNGEQFSSLIQREPSSRLRSCSVTDAVAEQGHLPPPSAPAGRARSSTVTGGEEPTPSVAYVHTTPGLPSGWEERKDAKGRTYYVNHNNRTTTWTRPIMQLAEDGASGSATNSNNHLIEPQIRRPRSLSSPTVTLSAPLEGAKDSPVRRAVKDTLSNPQSPQPSPYNSPKPQHKVTQSFLPPGWEMRIAPNGRPFFIDHNTKTTTWEDPRLKFPVHMRSKTSLNPNDLGPLPPGWEERIHLDGRTFYIDHNSKITQWEDPRLQNPAITGPAVPYSREFKQKYDYFRKKLKKPADIPNRFEMKLHRNNIFEESYRRIMSVKRPDVLKARLWIEFESEKGLDYGGVAREWFFLLSKEMFNPYYGLFEYSATDNYTLQINPNSGLCNEDHLSYFTFIGRVAGLAVFHGKLLDGFFIRPFYKMMLGKQITLNDMESVDSEYYNSLKWILENDPTELDLMFCIDEENFGQTYQVDLKPNGSEIMVTNENKREYIDLVIQWRFVNRVQKQMNAFLEGFTELLPIDLIKIFDENELELLMCGLGDVDVNDWRQHSIYKNGYCPNHPVIQWFWKAVLLMDAEKRIRLLQFVTGTSRVPMNGFAELYGSNGPQLFTIEQWGSPEKLPRAHTCFNRLDLPPYETFEDLREKLLMAVENAQGFEGVD
